## Screening data, single-dose tests

The chains behind the UniProt entries cited, without tags or fusion partners. Residues count along the entry.
UniProt P9WPC5, whole entry: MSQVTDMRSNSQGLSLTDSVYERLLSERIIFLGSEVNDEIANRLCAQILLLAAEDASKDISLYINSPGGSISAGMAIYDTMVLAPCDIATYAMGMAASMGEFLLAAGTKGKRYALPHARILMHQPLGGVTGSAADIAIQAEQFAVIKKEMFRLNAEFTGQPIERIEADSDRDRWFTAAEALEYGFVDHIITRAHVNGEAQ
UniProt P9WPC3, whole entry partner: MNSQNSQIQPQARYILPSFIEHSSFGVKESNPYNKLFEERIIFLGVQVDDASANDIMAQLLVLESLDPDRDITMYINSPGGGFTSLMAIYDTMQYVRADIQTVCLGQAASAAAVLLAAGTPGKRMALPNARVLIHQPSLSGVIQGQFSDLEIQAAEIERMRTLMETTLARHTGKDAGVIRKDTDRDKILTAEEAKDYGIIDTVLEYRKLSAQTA
UniProt P9WNZ1, whole entry: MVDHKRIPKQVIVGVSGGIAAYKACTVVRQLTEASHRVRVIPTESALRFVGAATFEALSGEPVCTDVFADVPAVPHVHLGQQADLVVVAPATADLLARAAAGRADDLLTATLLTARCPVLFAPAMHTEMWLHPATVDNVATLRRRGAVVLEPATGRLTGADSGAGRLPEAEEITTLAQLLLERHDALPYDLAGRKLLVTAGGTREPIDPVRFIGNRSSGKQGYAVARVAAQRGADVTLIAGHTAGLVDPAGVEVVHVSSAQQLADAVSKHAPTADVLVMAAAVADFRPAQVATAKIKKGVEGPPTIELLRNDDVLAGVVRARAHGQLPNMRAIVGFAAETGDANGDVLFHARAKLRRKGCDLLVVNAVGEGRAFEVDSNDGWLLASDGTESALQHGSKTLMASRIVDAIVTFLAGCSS
UniProt A4I591, 1-473: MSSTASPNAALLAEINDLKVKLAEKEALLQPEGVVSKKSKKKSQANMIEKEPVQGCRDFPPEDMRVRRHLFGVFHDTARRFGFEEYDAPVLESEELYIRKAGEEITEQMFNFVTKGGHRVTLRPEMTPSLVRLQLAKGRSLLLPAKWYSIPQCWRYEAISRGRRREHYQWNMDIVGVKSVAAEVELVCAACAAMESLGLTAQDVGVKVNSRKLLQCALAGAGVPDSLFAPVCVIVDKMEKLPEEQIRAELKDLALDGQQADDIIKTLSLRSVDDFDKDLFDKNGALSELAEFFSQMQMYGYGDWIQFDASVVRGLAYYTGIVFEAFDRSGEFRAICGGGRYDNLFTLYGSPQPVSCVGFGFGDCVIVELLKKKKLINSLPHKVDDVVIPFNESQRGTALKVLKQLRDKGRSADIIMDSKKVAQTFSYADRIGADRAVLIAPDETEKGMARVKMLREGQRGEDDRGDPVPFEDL

Data taken from ChEMBL document CHEMBL3988442, “University of Dundee, Small-Polar-MMV Screening Library” (2021).

Values are the deposited “Percent Effect”, in %. The controls that fix the scale are not given in the record; negative values are as filed. The compounds are a random part of those screened. Two or more numbers in one place are separate tests of the same structure; such repeats can differ widely. A dash means the value is not listed here; it may have been measured.

A: 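ClpP1P2, Mycobacterium tuberculosis (UniProt P9WPC5 and UniProt P9WPC3). Protease assay of ClpP1P2, read by the AMC dye that it sets free. Compounds at 50 µM. Higher reads as stronger inhibition, judged from the few compounds that gave an IC50. Most other retested compounds had strongly negative values. Of about 69,000 compounds tested this way, about 10 (0.015%) reached 50% or more in at least one test.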
B: 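Enzyme assay of CoaBC with a phosphate dye (Biomol Green) read at 650 nm. Target: Coenzyme A biosynthesis protein CoaBC, Mycobacterium tuberculosis (UniProt P9WNZ1). Tested at 30 µM. Higher reads as stronger inhibition, judged from the few compounds that gave an IC50. Most strong results did not repeat in a second test. Of about 67,000 compounds tested this way, about 40 (0.06%) reached 50% or more in at least one test.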
C: 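Cell assay of Leishmania donovani living inside macrophages; the read-out is not stated. Tested at 30 µM. The record gives no direction; compounds that gave an IC50 in retests scored well above the rest, so higher reads as stronger inhibition. About 69,000 compounds were tested under these conditions; 1.5% (about 1,000) showed 50% or more at least once.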
D: 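Histidine-tRNA ligase, Leishmania infantum (UniProt A4I591). Enzyme assay of histidyl-tRNA synthetase; the read-out is not stated. Compounds at 30 µM. Direction is inferred from retests: higher values go with stronger inhibition. The assay is labelled LdHisRS but filed under L. infantum. Size under these conditions: about 69,000 compounds, about 410 of them at 50% or above in at least one test.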

SMILES,A,B,C,D
CC(C)(C)OC(=O)N1CCCCC1C(=O)NCc1cc[nH]n1 (centres undefined),1.263,7.692,-15.72,24.24
Cn1cnc(S(=O)(=O)NCCCN2CCCC2=O)c1Cl,1.191,7.675,33.88,10.71
CNc1cc(C2CCCN(S(=O)(=O)c3cn[nH]c3)C2)ccn1 (centres undefined),0.1079,11.99,9.494,13.1
O=C(c1cccc(Cl)c1)N1CCCC(Nc2ccc(F)cc2)C1 (centres undefined),-8.574,-0.8444,5.511,13.6
CCc1cc(NCCCC2CCOC2)n2nccc2n1 (centres undefined),-1.933,8.848,27.41,8.602
Cc1ccc(C(=O)N2CCOCC3(CCN(C4CCOCC4)C3)C2)o1 (centres undefined),6.295,5.514,-,12.82
CN(C)CC(=O)N1CCOC2(CCCN(c3ncccc3F)C2)C1 (centres undefined),1.768,3.106,-,23.08
Cc1noc(C)c1CCCNC(=O)Nc1cccc([S+](C)[O-])c1 (centres undefined),-12.61,1.217,21.84,4.444
O=C(O)C1(Cc2ccc(Cl)cc2)CCN(c2ncccc2F)CC1,-7.512,3.004,-23.33,4.918
COCCN(CCN(C)C)C(=O)NC1CCc2ccccc2C1 (centres undefined),-9.24,2.206,3.927,8.889
[H][C@@]12CCCO[C@]1([H])[C@H](NC(=O)C1CC1)CN2Cc1cccs1,-,-,-19.79,-
Nc1ncc(-c2ccc(NC(=O)[C@@H]3CCCCN3)cc2)cn1,13.71,4.699,-5.358 & 7.056,28.57
CC(c1ccccc1)N(C)CC(=O)NCCC#N (centres undefined),1.646,7.54,1.529,4.464
COCCOCCNC(=O)C(C)Oc1ccccc1C(F)(F)F (centres undefined),1.42,-2.445,-40.29,8.065
CC(C)(C)C(=O)N1CCC(c2noc(C3CCC(=O)N3)n2)CC1 (centres undefined),-27.37,5.479,-17.63,6.711
NC(=O)Nc1cccc(CNC(=O)CCCc2ccccc2)c1,8.854,-3.566,-5.329,15.87
COCCN(Cc1ccc(F)cc1Cl)C(=O)c1cc(C)n[nH]1,-5.533,3.846,34.4,17.81
Cc1ccc2c(c1)c(C)cc(=O)n2CCCN,27.04,1.684,12.41,12.9
Cc1nc(COc2ccc(N(C)S(C)(=O)=O)cc2)sc1C,-11.08,3.89,-31.41,20.48
COCC1CN(c2ccc3c(Cl)ccnc3c2F)CCO1 (centres undefined),-9.13,-,15.81,10.83
CSc1ncccc1C(=O)N(CCO)Cc1ccccc1,7.09,5.097,44.28,13.86
O=C(O)C(F)(F)F.O=C(O)C(F)(F)F.[H][C@@]12CN(Cc3ccccc3)C[C@]1([H])C(=O)N(CCN1CCCC1)C2,-,-,4.431,-
CCN(Cc1cnn(CC)c1)Cc1c(Cl)cncc1Cl,-2.937,1.635,6.156,23.01
Cc1cc(C(=O)N(CC(=O)O)CC(C)C)ccc1F,-4.474,1.337,18.79,6.522
Cc1nn(C)cc1-c1cc(C(F)(F)F)n(CCCN)n1,0.6764,0.3681,-2.489,14.43
Cc1cn2nc(Sc3nnnn3C)sc2n1,-4.409,-0.6337,39.47,18.99
O=C(NCC1Cn2nnc(-c3ccsc3)c2CO1)N1CCCC1 (centres undefined),-7.508,2.956,39.46,18
CN(C(=O)CN1CCCC1c1cnn(C)c1)C(C)(C)C#N (centres undefined),8.884,1.222,0.7747,9.677
Cc1[nH]c(=O)[nH]c(=O)c1CN1CCCC(CCc2ccccc2)C1 (centres undefined),-12.59,-41.58,12.37,13.46
COc1cccc(OC)c1C(C(=O)O)N(C)Cc1c(C)n[nH]c1C (centres undefined),-4.954,0.369,9.758,12.9
CCn1c(CC2CCN(C(=O)C3CC(C(C)C)=NO3)CC2)nn(C)c1=O (centres undefined),-0.2045,2.174,17.39,7.071
CCS(=O)(=O)c1ccc(N2CCC(NC(=O)C(C)SC)CC2)cc1 (centres undefined),2.044,4.619,27.86,16.53
Cc1cc(C(=O)N2CC[C@@H](O)[C@@H]2Cc2ccccc2)no1,0.3304,-0.6435,-10.03,-36.54
Cc1cc(C(F)(F)F)c2c(=O)n(Cc3ccon3)n(C)c2n1,-5.609,10.28,18.37,16.81
CCn1nc(C)c2ncnc(NCCN3CCOCC3)c21,-7.963,7.39,-53.76,8.621
Cc1ccc(NC(=O)c2cccc(OCc3nnnn3C)c2)nc1,12.52,2.184,15.83,14.29
O=C(NCCOC1CCCC1)c1ccc(-c2ccco2)[nH]c1=O,-337.8,-21.3,-5.836,9.649
CCc1ccc(C(=O)N2CCC(c3nncn3CC)CC2)o1,0.7423,1.564,-10.9,4.494
CN1CC2(CCN(C(=O)c3ccc4c(=O)n(C)cnc4c3)C2)OC1=O (centres undefined),7.361,1.285,-1.561,5.208
CC1c2ncc(Cn3cccn3)n2CCN1Cc1ccccn1 (centres undefined),-38.61,2.351,-,29.7
CCC(=O)N1CCCCC1c1nc(N(C)C)ncc1-c1cc(C)no1 (centres undefined),-25.21,3.828,2.223,7.194
O=C(O)c1cc(S(=O)(=O)Nc2ccc(F)c(Cl)c2)cc2c1OCCO2,-17.76,2.417,5.61,2.609
[H][C@@]12C[C@H](C(=O)Nc3cccnc3)[C@@]([H])(CN(Cc3ccc(F)cc3)C1)O2,-,-,32.21,-
O=C(O)C(F)(F)F.O=C(O)C(F)(F)F.[H][C@@]12C[C@@H](OCc3ccccc3)CN1CCN(C(=O)c1cccnc1)C2,-,-,21.76,-
Cc1nc(N2CCN(C(=O)c3ccccc3)CC2)c2c(n1)c(C)nn2C,15.6,12.25,32.7,15.53
CN1CCOCC2(CCCN(C(=O)c3cn(C)cn3)C2)C1 (centres undefined),-4.328,5.212,-,31.43
Cc1ccoc1CNCc1nnc2n1CCCC2C(F)(F)F (centres undefined),7.455,3.321,-11.24,9.677
Cc1n[nH]c(C2CN(C(=O)COCC(F)(F)F)CCO2)n1 (centres undefined),-4.499,-0.3632,31.65,7.609
CN(Cc1cc(=O)c(O)co1)C1CCCN(c2ccccc2)C1 (centres undefined),-1.062,0.7317,7.691,10
CC(C)(C)CN1Cc2cc3c(cc2NCCC1=O)OCO3,-5.607,4.785,-3.097,32.99
[H][C@@]12CCN(C)[C@]1([H])CN(C(=O)c1csc(Cc3ccccc3)n1)C2,-,-,14.8,-
CCCc1c(C(=O)N2CCN(Cc3ccccn3)CC2)cnn1C,6.036,-5.159,-12.91,11.61
O=C(O)c1ccnc(-c2ccnc(N3CCC4(CCO4)CC3)n2)c1,-3.303,5.288,12.17,20.83
Cc1ccc2c(cnn2CCC(=O)NCc2csc(C3CC3)n2)c1,9.278,6.04,11.21,17.24
Cc1ccsc1-c1nccn1C1CC(=O)N(C(C)C)C1 (centres undefined),1.081,6.71,1.788,16.39
CCNc1ncc2c(n1)CN(c1ccc(C)c(C)c1)C2=O,-6.105,-15.7,-3.256,8.621
CCc1nc(C(=O)N2CCCC2)nn1-c1ccccc1Cl,-5.02,6.177,-31.31,22.73
Cc1cc(F)ccc1CNCc1cccc(C(=O)N2CCCC2)c1,16.12,-6.702,29.73,17.09
COc1cccc(COCC(=O)N2CCCC(n3cccn3)C2)c1 (centres undefined),7.396,14.04,14.72,9.917
CNc1ncc(CN(C)C2CCN(C(C)C)CC2)cn1,13.23,0,39.39,8.511
Cc1nn(C)c2c(=O)n(Cc3ccc(F)cc3)nnc12,-13.51,-5.543,0.151,5.172
C1CN(Cc2noc(C3CC3)n2)CCN(Cc2nnc(C3CC3)o2)C1,-22.49,1.828,2.38,13.79
CCN(Cc1cccc(C)c1)Cc1nc2c(cnn2C)c(=O)[nH]1,-40.7,0.2611,4.791,13.27

8 of the entries, repeated:

SMILES	A	B	C	D
CC(C)(C)CN1Cc2cc3c(cc2NCCC1=O)OCO3	-5.607	4.785	-3.097	32.99
O=C(NCCOC1CCCC1)c1ccc(-c2ccco2)[nH]c1=O	-337.8	-21.3	-5.836	9.649
Cc1ccc2c(cnn2CCC(=O)NCc2csc(C3CC3)n2)c1	9.278	6.04	11.21	17.24
Cc1cc(C(=O)N(CC(=O)O)CC(C)C)ccc1F	-4.474	1.337	18.79	6.522
COCC1CN(c2ccc3c(Cl)ccnc3c2F)CCO1 (centres undefined)	-9.13	-	15.81	10.83
CCN(Cc1cccc(C)c1)Cc1nc2c(cnn2C)c(=O)[nH]1	-40.7	0.2611	4.791	13.27
O=C(O)C(F)(F)F.O=C(O)C(F)(F)F.[H][C@@]12CN(Cc3ccccc3)C[C@]1([H])C(=O)N(CCN1CCCC1)C2	-	-	4.431	-
Cc1cc(F)ccc1CNCc1cccc(C(=O)N2CCCC2)c1	16.12	-6.702	29.73	17.09